Results taken from PMC4407904.
Results are given in words; binding and its absence hold for the method and conditions named. Some results given as binding are weak or reduced against the parent protein; the word gives no strength. For some of these results: Where a sequence is shown, tags or fusion partners need not be part of it. One block for each binder: values may come before it.

Tests used:
[1] = molecular target: myc-tagged CSPα L115R (UniProt P60905); assay: SDS-PAGE and immunoblot of detergent-resistant oligomers; soluble CAD cell lysates (1% Triton X-100, 0.1% SDS lysis buffer) 24-72 h after transient transfection; blots with anti-myc, anti-flag or anti-CSPα
[2] = molecular target: T1, endogenous CSPα of human cortex (control) (human (endogenous in post-mortem cortex)), Q9H3Z4; assay: SDS-PAGE and immunoblot of detergent-resistant oligomers; crude synaptosomes (P2) of post-mortem human cortex solubilized in 0.5% Triton-X100/PBS at 4°C, then Laemmli sample buffer at 37°C for 1 hour; anti-CSPα blot, long exposure; conditions: remark: other sources report otherwise
T1 chain: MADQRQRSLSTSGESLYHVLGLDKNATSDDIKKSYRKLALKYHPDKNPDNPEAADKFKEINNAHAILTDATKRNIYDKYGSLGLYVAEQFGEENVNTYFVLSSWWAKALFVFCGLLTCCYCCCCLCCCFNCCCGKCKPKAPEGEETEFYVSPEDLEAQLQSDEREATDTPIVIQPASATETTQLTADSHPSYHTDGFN

[3] = molecular target: endogenous CSPα of CAD cells (mouse (endogenous in CAD cells)) (UniProt P60904); assay: SDS-PAGE and immunoblot of detergent-resistant oligomers; soluble CAD cell lysates (1% Triton X-100, 0.1% SDS lysis buffer) 24-72 h after transient transfection; blots with anti-myc, anti-flag or anti-CSPα
[4] = molecular target: myc-tagged CSPα L116Δ (UniProt P60905); assay: as above

binding [1]: binds
B1: myc-tagged CSPα L115R (protein, UniProt P60905 1-198)
chain: MADQRQRSLSTSGESLYHVLGLDKNATSDDIKKSYRKLALKYHPDKNPDNPEAADKFKEINNAHAILTDATKRNIYDKYGSLGLYVAEQFGEENVNTYFVLSSWWAKALFVVCGRLTCCYCCCCLCCCFNCCCGKCKPKAPEGEETEFYVSPEDLEAQLQSDEREATDTPIVIQPASATETTQLTADSHPSYHTDGFN

binding [2]: binds
B2: endogenous CSPα of human cortex (control), Q9H3Z4 1-198 (protein)
chain: MADQRQRSLSTSGESLYHVLGLDKNATSDDIKKSYRKLALKYHPDKNPDNPEAADKFKEINNAHAILTDATKRNIYDKYGSLGLYVAEQFGEENVNTYFVLSSWWAKALFVFCGLLTCCYCCCCLCCCFNCCCGKCKPKAPEGEETEFYVSPEDLEAQLQSDEREATDTPIVIQPASATETTQLTADSHPSYHTDGFN

binding [3]: binds
B3: endogenous CSPα of CAD cells (protein, UniProt P60904 1-198)
chain: MADQRQRSLSTSGESLYHVLGLDKNATSDDIKKSYRKLALKYHPDKNPDNPEAADKFKEINNAHAILTDATKRNIYDKYGSLGLYVAEQFGEENVNTYFVLSSWWAKALFVVCGLLTCCYCCCCLCCCFNCCCGKCKPKAPEGEETEFYVSPEDLEAQLQSDEREATDTPIVIQPASATETTQLTADSHPSYHTDGFN

binding [4]: binds
B4: myc-tagged CSPα L116Δ (protein, UniProt P60905 1-198)
chain: MADQRQRSLSTSGESLYHVLGLDKNATSDDIKKSYRKLALKYHPDKNPDNPEAADKFKEINNAHAILTDATKRNIYDKYGSLGLYVAEQFGEENVNTYFVLSSWWAKALFVVCGLTCCYCCCCLCCCFNCCCGKCKPKAPEGEETEFYVSPEDLEAQLQSDEREATDTPIVIQPASATETTQLTADSHPSYHTDGFN
